Measurements from PubChem BioAssay AID493014 (National Center for Advancing Translational Sciences (NCATS), 2011).
This is one part of the list. These are further read-outs of the screen, such as a control signal, another cell line or another target. No call is given for them. Compounds called inactive in the main read-out are mostly missing here. Words in brackets tell the shape of the fitted curve; partial curves, single points and poor fits give uncertain potencies.

Assay: qHTS Assay to Find Inhibitors of Chronic Active B-Cell Receptor Signaling
Conditions: ABC-DLBCL IkBa-CBG/CBR reporter, luminescence ratio (green luciferase fused to IkBa over red control in TMD8 lymphoma cells), 4 h
Procedure, shortened: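 Concentration-response series (up to 46 uM) were applied to TMD8 dual-reporter cells for 4 h at 37C with doxycycline. Green/red ratio, after filter-overlap correction, defined %Activity; red signal alone was normalised to basal cells and zero luminescence.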

[1] = measured here: CBR red luminescence, cell number
[2] = measured here: IkBa-CBG green luminescence

Structure (SMILES)	AC50 [1]	AC50 [2]
CC1CCCN(C(=O)COC(=O)c2cc([N+](=O)[O-])ccc2N2CCOCC2)C1 (stereo not drawn)	23.1 µM [rising, single point]	–
Cc1cc(Cl)ccc1OCC(=O)NCc1ccncc1	2 µM [rising, partial curve, poor fit]	–
Cc1ccc(C2OCC3(CO)COC(c4ccc(C)cc4)N23)cc1 (stereo not drawn)	0.184 µM [rising, partial curve, poor fit]	8.2 µM [falling, partial curve, poor fit]
CCOc1ccc(C(=O)NCC(=O)OCC(=O)Nc2ccccc2OC)cc1	29.1 µM [rising, single point]	–
Cc1ccc(C(=O)COC(=O)c2cccc(O)c2)s1	20.6 µM [falling, partial curve, poor fit]	–
CC(C)c1ccc(NC(=O)C2=NNC(=O)CC2)cc1	6.31 µM [rising, single point]	–
Fc1ccc(Nc2ncnc3ccccc23)cc1	3.16 µM [falling, full curve]	–
O=C(/C=C/c1cn(-c2ccccc2)nc1-c1cccnc1)N1CCCC1	10 µM [falling, partial curve, poor fit]	–
C=CCSc1nnc(NC(=O)CCN2C(=O)C3CC=CCC3C2=O)s1 (stereo not drawn)	29.1 µM [rising, single point]	–
COc1cc(/C=N/Nc2nc3ccccc3s2)cc([N+](=O)[O-])c1O	5.01 µM [falling, full curve, poor fit]	–
CCSc1nnc(-c2ccccc2N=Cc2c(C)[nH]n(-c3ccccc3)c2=O)c(=O)[nH]1	18.4 µM [falling, partial curve, poor fit]	–
Cc1cccc(NC(=O)c2onc3c2CCCC3)c1C	0.2 µM [falling, full curve, poor fit]	–
Oc1ccc(/C=N/Nc2ccc(C(F)(F)F)cn2)cc1O	15.8 µM [falling, single point]	–
CCOc1cc(C(=O)O/N=C(\N)c2ccc([N+](=O)[O-])cc2)cc(OCC)c1OCC	35.5 µM [rising, single point]	–
CC(=O)Oc1ccc2c(=O)oc(-c3ccccc3)nc2c1	0.447 µM [falling, full curve]	–
Cc1ccc(C2C(C#N)=C(N)SC(N)=C2C#N)c(C)c1	35.5 µM [falling, single point]	–
CCc1ccccc1NC(=S)N=Nc1c(O)n(C)c2ccc(S(=O)(=O)N3CCOCC3)cc12	–	20.6 µM [falling, partial curve]
Cc1cccc(-n2c(O)c(C=Nc3ccc4c(c3)OCO4)c3ccccc3c2=O)n1	17.8 µM [rising, partial curve, poor fit]	–
CCCSc1ccc2nc(-c3ccccc3)cn2c1	2.06 µM [falling, full curve]	–
O=C(CCS(=O)(=O)c1cccs1)Nc1ccc(C(=O)NCc2ccc(F)cc2)cc1	6.51 µM [rising, full curve, poor fit]	–
COc1cccc(N/C=C/C(=O)c2ccc(OC)c(OC)c2)c1	35.5 µM [falling, single point]	–

In another format: two of the compounds above
Structure (SMILES),AC50 [1],AC50 [2]
COc1cc(/C=N/Nc2nc3ccccc3s2)cc([N+](=O)[O-])c1O,"5.01 µM [falling, full curve, poor fit]",–
Cc1cccc(-n2c(O)c(C=Nc3ccc4c(c3)OCO4)c3ccccc3c2=O)n1,"17.8 µM [rising, partial curve, poor fit]",–

(next part)

Structure (SMILES)	AC50 [1]	AC50 [2]
COc1ccc(C(=O)N2CCC(n3nccc3NC(=O)C3CCOC3)CC2)cc1 (stereo not drawn)	0.891 µM [rising, full curve, poor fit]	–
CCN(CC)c1ccc(/C=N/Nc2cccc(C)c2)c(O)c1	29.1 µM [rising, single point]	–
CC1(C)Cc2c(c(-c3ccco3)[nH]c(=O)c2C#N)CO1	–	2.59 µM [rising, full curve, poor fit]
Cc1noc(C)c1CSc1ncnc2sc3c(c12)CCC3	2 µM [rising, full curve, poor fit]	–
COc1ccc(Oc2cccc(Cl)c2CNC(=O)CCCC(=O)O)cc1	20 µM [rising, partial curve, poor fit]	–
Cc1ccc(-c2noc(CC(c3ccccc3)c3ccccc3)n2)cc1	0.146 µM [rising, full curve, poor fit]	–
CCCCc1cc2ccccc2c(OCCN(C)C)n1	6.51 µM [rising, partial curve, poor fit]	–
CCN1CCc2nc(NC(=O)c3ccc4c(c3)OCCO4)sc2C1	22.4 µM [falling, single point]	–
COc1ccccc1C(=O)NC(=O)COC(=O)c1cccc(NC(C)=O)c1	14.1 µM [falling, partial curve, poor fit]	–
O=C(Oc1cccc(Nc2ncnc3ccccc23)c1)c1cccnc1	35.5 µM [falling, single point]	–
CCC(=O)NCCc1sc2nc(-c3ccc(OC)cc3)nn2c1C	3.55 µM [rising, full curve]	–
C/C(=N/Nc1nc(-c2ccccc2)c(CC(=O)O)s1)c1ccccc1	12.6 µM [falling, partial curve]	–
O=C(C(NS(=O)(=O)c1cccs1)c1ccccc1)N1CCN(c2ccccc2F)CC1 (stereo not drawn)	4.11 µM [falling, single point]	–
Cc1ccc(C)c(Cn2nnc(C(=O)Nc3ccc4c(c3)OCCO4)c2N)c1	5.17 µM [falling, full curve]	–
CCC(C)C(=O)Nc1nnc(SCC(=O)Nc2ccccc2F)s1 (stereo not drawn)	1.12 µM [rising, full curve, poor fit]	–
CNC(=O)c1c(NC(=O)C2=COCCO2)sc2c1CCC(C)C2 (stereo not drawn)	0.316 µM [rising, full curve, poor fit]	–
c1ccc(-c2noc(CSc3nnc(Cc4cccs4)n3-c3ccccc3)n2)cc1	29.1 µM [falling, single point]	–
CN(C)S(=O)(=O)c1ccc(NC(=O)c2ccc3ncsc3c2)cc1	14.1 µM [falling, partial curve, poor fit]	–
O=C1NC(c2ccccc2O)Nc2ccccc21 (stereo not drawn)	35.5 µM [falling, single point]	–
Cc1cc(NC(=O)c2cccc(COc3ccc(Br)cc3)c2)no1	16.4 µM [falling, single point]	–
CCOc1ccccc1-n1nnnc1SCC(=O)O	35.5 µM [rising, single point]	–
